Experimental data taken from article PMC6320938 (Molecules, 2018).

Key:
[1] = Short-term stability in rat plasma at room temperature; format: in vitro ADME; details: for RE: room temperature stability; for 0 h Measured C / 4 h Measured C / 6 h Measured C: room temperature
Protocol: The stabilities of atractylenolides I, II, and III, and atractyloside A in rat plasma were evaluated at three different QC concentrations using six replicates under two conditions, including at 25 °C for 6 h, and three freeze and thaw cycles. Unextracted QC samples of the four compounds at low, medium, and high concentrations were kept at ambient temperature (25 °C) for 6 h to determine the short-term stability of the compounds in rat plasma. The samples were processed and analyzed, and then the concentrations were compared with the nominal values of the QC samples. The stabilities of the plasma samples after three freeze and thaw cycles were determined. In each cycle, the QC samples were stored at −20 °C for 24 h and thawed unassisted at room temperature. When completely thawed, the samples were refrozen within 24 h. The cycle was repeated three times and the samples were analyzed after the third cycle. Stability was assessed by comparing the mean concentration of the stored QC samples with the mean concentration of freshly prepared QC samples.

[2] = Freeze-thaw stability in rat plasma; format: in vitro ADME; details: for One Time Measured C / Two Time Measured C / Zero Time Measured C: freeze-thaw (−20 °C / room temperature); for RE: freeze-thaw stability
Protocol: […] Unextracted QC samples of the four compounds at low, medium, and high concentrations were kept at ambient temperature (25 °C) for 6 h to determine the short-term stability of the compounds in rat plasma. The samples were processed and analyzed, and then the concentrations were compared with the nominal values of the QC samples. […] In each cycle, the QC samples were stored at −20 °C for 24 h and thawed unassisted at room temperature. When completely thawed, the samples were refrozen within 24 h. […] Stability was assessed by comparing the mean concentration of the stored QC samples with the mean concentration of freshly prepared QC samples.

[3] = high QC: added 140 (atractylenolide I), 200 (II, III), 172 (atractyloside A) ng/mL
[4] = low QC: added 5.6 (atractylenolide I), 8 (II, III), 6.88 (atractyloside A) ng/mL
[5] = medium QC: added 28 (atractylenolide I), 40 (II, III), 17.2 (atractyloside A) ng/mL

## C=C1CCC[C@]2(C)C=C3OC(=O)C(C)=C3C[C@@H]12 [Atractylenolide I]
[1]; [3]
  RE: 0.13%
  0 h Measured C: 140.49 ng/mL
  4 h Measured C: 140.45 ng/mL
  6 h Measured C: 139.61 ng/mL
[1]; [4]
  RE: −1.37%
  0 h Measured C: 5.56 ng/mL
  4 h Measured C: 5.51 ng/mL
  6 h Measured C: 5.50 ng/mL
[1]; [5]
  RE: 0.98%
  0 h Measured C: 28.52 ng/mL
  4 h Measured C: 28.43 ng/mL
  6 h Measured C: 27.87 ng/mL
[2]; [3]
  One Time Measured C: 140.01 ng/mL
  Two Time Measured C: 140.22 ng/mL
  Zero Time Measured C: 141.30 ng/mL
  RE: 0.36%
[2]; [4]
  One Time Measured C: 5.04 ng/mL
  Two Time Measured C: 5.02 ng/mL
  Zero Time Measured C: 5.95 ng/mL
  RE: −4.70%
[2]; [5]
  One Time Measured C: 28.50 ng/mL
  Two Time Measured C: 28.01 ng/mL
  Zero Time Measured C: 28.42 ng/mL
  RE: 1.11%
